The record followed here is US20200377573A1.

Positions count from the first letter of the chain named. No constants are given. Whether binding was seen depends on the method and setting. Binding can be weak; no strength is given. For part of these data: Binding seen in cells or lysates may run through a third protein.

For assay [1], the target named is HTRA1 (cat) (human). Nature of the assay: mixing and gel filtration chromatography (Superdex 200). In general terms: SEC sorts molecules by how far they enter the pores of the column.
Assay [2] deals with HTRA1 (cat) (human). Nature of the assay: X-ray crystallography of the complex, 2.6 Angstrom.
In assay [3] the target is HTRA1 (cat) (human). Nature of the assay: X-ray crystallography of the complex.
Assay [4] has as its target HTRA1 (cat) (human). Put plainly: immunoprecipitation method: pull-down of His tag-fused HTRA1 (cat) with TALON resin, SDS-PAGE.

B1: peptide H218 (designed binder)
chain: DPQFGLFSKYRTPNCLKSEGMACYAYYEPVCGSDMSTYANECTLCMKIREGGHNIKIIRNGPCGG
On to B1, for which the binding entry in assay [1], in assay [2] and in assay [3] was “binds” in each case.

B2: peptide derivative H322AT_D1G_S16A (designed binder)
chain: B1 chain with D1G, L16A, K17Q, S18H, Y26L
As for B2, the binding result in assay [4] is “binds”.

B3: peptide H308 (designed binder)
chain: B1 chain with L16S, K17D, S18H, E19A, Y24V, Y26L, A39E, T43V
On to B3, for which the binding result in assay [4] is reported as “binds”.

B4: peptide derivative H321AT_D1G_S16A (designed binder)
chain: B1 chain with D1G, L16A, K17D, S18F, E19D, Y26F
Turning to B4, the binding entry in assay [4] is “binds”.

B5: peptide derivative H322AT (designed binder)
chain: B1 chain with L16S, K17Q, S18H, Y26L
Regarding B5, in assay [4], the binding entry is listed as “binds”.

B6: peptide derivative H321AT (designed binder)
chain: B1 chain with L16S, K17D, S18F, E19D, Y26F
As for B6, the binding entry in assay [4] was “binds”.

B7: peptide derivative H308_D1G_S16A (designed binder)
chain: GPQFGLFSKYRTPNCADHAGMACVALYEPVCGSDMSTYENECVLCMKIREGGHNIKIIRNGPCGG
Consider B7, for which the binding entry in assay [4] is “binds”.
